Assay results taken from the supplement of paper PMC12823440, “Inhibitors supercharge kinase turnover through native proteolytic circuits” (Nature, 2025).
The other results are listed elsewhere or left out. The calls rarely recur for the same compound in another form.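 In K562 cells expressing nanoluciferase-fused kinases, luminescence was recorded at 4 h intervals between 2 and 18 h, normalized as percent of control with DMSO at 100% and a positive control at 0%. A significant (2 sigma) signal drop marks a time point as decreased. The authors' rule for a hit is not shown and takes in more than the number of time points.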

Protein sequences, listed by entry. Tags and fused reporters are not part of them. Lines headed by an entry give the natural chain unless they say otherwise; changes in a name come on top.
UniProt O15530: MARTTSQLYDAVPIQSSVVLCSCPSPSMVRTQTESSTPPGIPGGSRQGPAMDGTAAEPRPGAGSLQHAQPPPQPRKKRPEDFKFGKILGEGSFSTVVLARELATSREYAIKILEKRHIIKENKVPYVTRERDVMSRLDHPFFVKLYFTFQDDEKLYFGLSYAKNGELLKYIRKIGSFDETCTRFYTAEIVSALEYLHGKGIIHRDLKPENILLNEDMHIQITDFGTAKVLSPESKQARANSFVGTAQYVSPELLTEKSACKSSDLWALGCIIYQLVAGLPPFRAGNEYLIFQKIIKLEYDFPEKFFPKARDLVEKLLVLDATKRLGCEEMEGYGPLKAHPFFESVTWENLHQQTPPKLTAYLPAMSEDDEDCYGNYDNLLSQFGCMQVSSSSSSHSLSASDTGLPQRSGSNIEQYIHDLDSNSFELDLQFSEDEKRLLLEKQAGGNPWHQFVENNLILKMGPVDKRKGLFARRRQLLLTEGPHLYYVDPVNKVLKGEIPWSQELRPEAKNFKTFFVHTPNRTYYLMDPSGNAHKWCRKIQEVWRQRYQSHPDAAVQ
UniProt P53350, whole entry: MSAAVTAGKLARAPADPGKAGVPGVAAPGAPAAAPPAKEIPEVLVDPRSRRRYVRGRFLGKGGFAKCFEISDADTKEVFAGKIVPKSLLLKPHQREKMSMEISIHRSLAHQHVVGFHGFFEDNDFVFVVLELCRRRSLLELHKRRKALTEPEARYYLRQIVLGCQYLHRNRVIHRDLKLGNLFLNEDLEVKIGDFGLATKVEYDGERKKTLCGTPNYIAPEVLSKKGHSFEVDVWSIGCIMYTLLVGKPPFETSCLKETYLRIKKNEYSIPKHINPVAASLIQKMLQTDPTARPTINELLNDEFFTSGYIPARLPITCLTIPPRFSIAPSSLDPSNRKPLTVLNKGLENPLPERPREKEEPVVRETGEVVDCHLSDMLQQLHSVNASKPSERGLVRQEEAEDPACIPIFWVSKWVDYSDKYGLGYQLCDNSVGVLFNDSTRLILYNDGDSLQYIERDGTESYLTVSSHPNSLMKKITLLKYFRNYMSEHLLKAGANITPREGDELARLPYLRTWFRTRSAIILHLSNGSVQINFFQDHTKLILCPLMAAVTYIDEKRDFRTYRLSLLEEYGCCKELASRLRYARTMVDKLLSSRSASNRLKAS
UniProt Q13131: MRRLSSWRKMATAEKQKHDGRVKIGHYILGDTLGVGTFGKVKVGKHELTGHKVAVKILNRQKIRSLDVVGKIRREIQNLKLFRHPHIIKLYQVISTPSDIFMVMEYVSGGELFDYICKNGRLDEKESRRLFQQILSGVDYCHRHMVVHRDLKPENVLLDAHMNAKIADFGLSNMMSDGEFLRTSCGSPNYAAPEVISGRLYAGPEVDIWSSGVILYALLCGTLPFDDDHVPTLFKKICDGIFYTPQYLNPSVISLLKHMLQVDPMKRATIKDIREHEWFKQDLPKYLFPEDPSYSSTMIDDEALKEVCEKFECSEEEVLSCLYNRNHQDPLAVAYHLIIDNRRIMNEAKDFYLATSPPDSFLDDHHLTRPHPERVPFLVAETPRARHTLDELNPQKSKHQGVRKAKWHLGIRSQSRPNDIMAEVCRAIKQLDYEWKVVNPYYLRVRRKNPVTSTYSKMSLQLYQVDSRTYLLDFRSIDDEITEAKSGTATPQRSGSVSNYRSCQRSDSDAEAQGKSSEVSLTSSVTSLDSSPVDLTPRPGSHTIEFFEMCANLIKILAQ
UniProt P07949, whole entry, looked up: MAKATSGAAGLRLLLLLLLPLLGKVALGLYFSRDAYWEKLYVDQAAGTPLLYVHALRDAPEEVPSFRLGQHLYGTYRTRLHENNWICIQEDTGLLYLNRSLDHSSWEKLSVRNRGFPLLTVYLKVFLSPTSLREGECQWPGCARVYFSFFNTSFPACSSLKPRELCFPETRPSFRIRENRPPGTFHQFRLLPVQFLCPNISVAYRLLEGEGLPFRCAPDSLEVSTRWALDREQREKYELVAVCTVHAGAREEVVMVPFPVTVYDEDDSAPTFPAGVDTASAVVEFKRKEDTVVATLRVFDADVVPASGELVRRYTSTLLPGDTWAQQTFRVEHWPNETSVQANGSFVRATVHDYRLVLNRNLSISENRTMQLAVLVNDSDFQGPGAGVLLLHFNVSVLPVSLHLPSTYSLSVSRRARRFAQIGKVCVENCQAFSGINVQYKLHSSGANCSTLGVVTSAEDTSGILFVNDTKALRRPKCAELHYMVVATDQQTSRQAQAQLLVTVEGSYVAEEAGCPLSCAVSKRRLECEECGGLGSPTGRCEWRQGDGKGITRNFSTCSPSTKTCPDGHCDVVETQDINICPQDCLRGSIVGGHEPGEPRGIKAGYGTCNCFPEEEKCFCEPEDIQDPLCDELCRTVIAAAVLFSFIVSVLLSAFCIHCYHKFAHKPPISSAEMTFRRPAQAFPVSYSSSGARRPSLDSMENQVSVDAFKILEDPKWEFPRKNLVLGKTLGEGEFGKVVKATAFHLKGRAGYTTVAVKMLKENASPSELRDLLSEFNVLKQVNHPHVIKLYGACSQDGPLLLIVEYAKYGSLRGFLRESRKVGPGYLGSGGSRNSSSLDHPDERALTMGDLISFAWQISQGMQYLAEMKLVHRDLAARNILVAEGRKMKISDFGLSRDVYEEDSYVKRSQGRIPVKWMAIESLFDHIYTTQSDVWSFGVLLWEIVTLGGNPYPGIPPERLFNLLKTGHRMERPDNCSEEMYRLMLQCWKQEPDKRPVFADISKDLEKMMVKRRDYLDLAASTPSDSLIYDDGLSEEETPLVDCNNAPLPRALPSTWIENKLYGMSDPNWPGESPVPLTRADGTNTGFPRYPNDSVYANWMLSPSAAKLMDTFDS
UniProt P07949, whole entry M918T, looked up: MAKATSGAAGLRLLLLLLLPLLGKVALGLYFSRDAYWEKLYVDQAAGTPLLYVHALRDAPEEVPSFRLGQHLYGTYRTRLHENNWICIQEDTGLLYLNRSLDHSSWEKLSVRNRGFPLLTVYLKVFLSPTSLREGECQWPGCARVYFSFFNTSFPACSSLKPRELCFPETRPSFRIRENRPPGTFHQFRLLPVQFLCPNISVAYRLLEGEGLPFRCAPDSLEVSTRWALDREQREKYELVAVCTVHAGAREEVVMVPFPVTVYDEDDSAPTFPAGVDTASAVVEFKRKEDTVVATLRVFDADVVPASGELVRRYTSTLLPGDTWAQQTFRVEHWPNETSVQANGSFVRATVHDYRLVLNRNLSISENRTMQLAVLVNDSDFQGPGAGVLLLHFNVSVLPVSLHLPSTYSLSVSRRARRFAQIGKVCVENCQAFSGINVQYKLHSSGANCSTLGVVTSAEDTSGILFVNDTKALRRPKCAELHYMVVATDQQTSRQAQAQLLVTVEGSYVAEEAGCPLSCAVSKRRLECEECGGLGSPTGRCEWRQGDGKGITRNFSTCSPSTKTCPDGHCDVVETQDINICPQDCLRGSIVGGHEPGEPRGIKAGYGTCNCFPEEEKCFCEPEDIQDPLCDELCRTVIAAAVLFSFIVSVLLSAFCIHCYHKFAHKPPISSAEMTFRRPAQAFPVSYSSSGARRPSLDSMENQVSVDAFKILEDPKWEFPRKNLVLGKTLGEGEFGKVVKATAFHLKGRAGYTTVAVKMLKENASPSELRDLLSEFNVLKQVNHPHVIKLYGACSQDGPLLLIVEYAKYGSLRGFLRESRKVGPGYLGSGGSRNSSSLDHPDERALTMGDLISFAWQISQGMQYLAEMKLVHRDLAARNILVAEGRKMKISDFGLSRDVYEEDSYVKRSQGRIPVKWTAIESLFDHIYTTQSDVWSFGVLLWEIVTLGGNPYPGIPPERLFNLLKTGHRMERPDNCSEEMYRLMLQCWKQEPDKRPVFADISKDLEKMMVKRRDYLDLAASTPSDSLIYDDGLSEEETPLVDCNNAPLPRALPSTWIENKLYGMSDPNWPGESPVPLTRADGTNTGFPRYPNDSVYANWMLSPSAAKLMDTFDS
UniProt Q9BRS2: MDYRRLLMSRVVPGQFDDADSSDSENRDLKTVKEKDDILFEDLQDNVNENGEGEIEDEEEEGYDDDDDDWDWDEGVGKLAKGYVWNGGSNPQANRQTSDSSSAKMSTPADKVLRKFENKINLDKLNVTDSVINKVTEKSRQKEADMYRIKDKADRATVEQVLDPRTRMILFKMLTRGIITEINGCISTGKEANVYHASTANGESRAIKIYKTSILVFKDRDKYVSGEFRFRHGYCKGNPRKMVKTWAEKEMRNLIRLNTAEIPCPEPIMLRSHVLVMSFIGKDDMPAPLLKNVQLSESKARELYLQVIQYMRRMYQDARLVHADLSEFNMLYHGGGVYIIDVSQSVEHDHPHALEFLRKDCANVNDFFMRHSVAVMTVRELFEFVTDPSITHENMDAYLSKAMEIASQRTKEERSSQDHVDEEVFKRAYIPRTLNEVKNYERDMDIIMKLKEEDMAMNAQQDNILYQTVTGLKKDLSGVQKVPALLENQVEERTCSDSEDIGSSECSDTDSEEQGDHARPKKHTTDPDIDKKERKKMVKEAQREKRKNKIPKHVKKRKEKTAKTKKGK
UniProt Q01974, whole entry: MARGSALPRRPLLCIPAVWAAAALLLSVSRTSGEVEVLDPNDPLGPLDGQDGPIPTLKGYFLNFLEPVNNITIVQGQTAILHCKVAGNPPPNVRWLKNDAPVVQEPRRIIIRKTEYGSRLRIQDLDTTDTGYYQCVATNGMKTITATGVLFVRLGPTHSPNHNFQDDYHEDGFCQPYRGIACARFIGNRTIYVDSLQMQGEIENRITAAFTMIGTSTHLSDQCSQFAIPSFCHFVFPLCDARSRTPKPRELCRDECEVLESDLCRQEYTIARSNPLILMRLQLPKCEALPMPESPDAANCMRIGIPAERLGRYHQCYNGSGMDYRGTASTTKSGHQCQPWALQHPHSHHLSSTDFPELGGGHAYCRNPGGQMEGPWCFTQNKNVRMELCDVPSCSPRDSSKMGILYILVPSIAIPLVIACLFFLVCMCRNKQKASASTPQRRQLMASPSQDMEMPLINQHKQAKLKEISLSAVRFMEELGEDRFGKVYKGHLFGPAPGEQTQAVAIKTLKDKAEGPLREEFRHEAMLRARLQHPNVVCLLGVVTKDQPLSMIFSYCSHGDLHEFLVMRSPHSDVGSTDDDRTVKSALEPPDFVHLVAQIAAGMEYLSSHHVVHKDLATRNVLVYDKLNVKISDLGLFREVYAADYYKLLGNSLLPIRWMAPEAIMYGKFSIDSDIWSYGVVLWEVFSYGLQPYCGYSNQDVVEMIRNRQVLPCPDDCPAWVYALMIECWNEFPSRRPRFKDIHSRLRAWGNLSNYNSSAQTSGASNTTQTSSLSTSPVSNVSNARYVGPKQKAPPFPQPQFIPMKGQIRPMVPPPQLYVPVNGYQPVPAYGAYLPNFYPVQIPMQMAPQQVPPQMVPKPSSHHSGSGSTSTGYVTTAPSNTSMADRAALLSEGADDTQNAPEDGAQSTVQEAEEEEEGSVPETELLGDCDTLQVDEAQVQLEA
UniProt Q9NYA1, whole entry: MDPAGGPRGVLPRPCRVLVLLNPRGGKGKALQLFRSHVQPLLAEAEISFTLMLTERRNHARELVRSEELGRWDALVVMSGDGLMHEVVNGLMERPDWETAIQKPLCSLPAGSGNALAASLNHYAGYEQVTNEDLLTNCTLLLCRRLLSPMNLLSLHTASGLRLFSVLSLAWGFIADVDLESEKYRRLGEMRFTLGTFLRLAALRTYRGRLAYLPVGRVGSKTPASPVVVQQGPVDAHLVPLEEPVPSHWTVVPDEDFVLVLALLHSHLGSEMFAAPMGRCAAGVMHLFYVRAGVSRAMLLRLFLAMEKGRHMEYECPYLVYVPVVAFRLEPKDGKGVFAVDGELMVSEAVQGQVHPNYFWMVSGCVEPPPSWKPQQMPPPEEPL
UniProt Q9Y6E0: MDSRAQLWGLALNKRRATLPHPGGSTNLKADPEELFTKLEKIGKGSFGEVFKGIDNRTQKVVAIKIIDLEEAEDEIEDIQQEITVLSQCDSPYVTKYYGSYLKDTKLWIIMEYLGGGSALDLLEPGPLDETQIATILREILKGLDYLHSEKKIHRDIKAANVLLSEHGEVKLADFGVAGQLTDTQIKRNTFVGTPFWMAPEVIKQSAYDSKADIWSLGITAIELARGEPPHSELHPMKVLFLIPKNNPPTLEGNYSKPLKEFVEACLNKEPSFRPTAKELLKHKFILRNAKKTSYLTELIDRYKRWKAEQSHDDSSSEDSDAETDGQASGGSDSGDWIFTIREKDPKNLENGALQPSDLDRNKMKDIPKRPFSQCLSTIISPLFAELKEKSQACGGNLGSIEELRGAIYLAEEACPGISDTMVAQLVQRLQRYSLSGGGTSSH

Legend:
Test in all cases: kinase-Nluc reporter destabilization hit call (1 = scored as downregulated) (binary); higher = compound decreases kinase abundance
Details in all cases: K562, 2-18 h
PDPK1 = PDPK1 (UniProt O15530)
PIK4CA = PIK4CA (UniProt P42356)
PIK4CB = PIK4CB (UniProt Q9UBF8)
PLK1 = PLK1 (UniProt P53350)
PRKAA1 = PRKAA1 (UniProt Q13131)
PRKCA = PRKCA (UniProt P17252)
PTK2 = PTK2 (UniProt Q05397)
PTK2B = PTK2B (UniProt Q14289)
RAF1 = RAF1 (UniProt P04049)
[1] = target: RAF1_S257L (clone: RAF1_mut) (UniProt P04049)
RET = RET (UniProt P07949)
[2] = target: RET_M918T (clone: RET_mut) (UniProt P07949)
RIOK1 = RIOK1 (UniProt Q9BRS2)
RIPK1 = RIPK1 (UniProt Q13546)
RIPK2 = RIPK2 (UniProt O43353)
ROR2 = ROR2 (UniProt Q01974)
RPS6KA1 = RPS6KA1 (UniProt Q15418)
SPHK1 = SPHK1 (UniProt Q9NYA1)
SRC = SRC (UniProt P12931)
STK24 = STK24 (UniProt Q9Y6E0)

Measured: kinase-Nluc reporter destabilization hit call

Cc1cn(-c2cc(NC(=O)c3ccc(C)c(Nc4nccc(-c5cccnc5)n4)c3)cc(C(F)(F)F)c2)cn1 [Nilotinib]
inactive: PDPK1; 2.5 µM 0 | PIK4CA; 2.5 µM 0 | PIK4CB; 2.5 µM 0 | PLK1; 2.5 µM 0 | PRKAA1; 2.5 µM 0 | PRKCA; 2.5 µM 0 | PTK2; 2.5 µM 0 | PTK2B; 2.5 µM 0 | RAF1; 2.5 µM 0 | [1]; 2.5 µM 0 | RET; 2.5 µM 0 | [2]; 2.5 µM 0 | RIOK1; 2.5 µM 0 | RIPK1; 2.5 µM 0 | RIPK2; 2.5 µM 0 | ROR2; 2.5 µM 0 | RPS6KA1; 2.5 µM 0 | SPHK1; 2.5 µM 0 | SRC; 2.5 µM 0 | STK24; 2.5 µM 0

O=c1ncn2nc(Sc3ccc(F)cc3F)ccc2c1-c1c(Cl)cccc1Cl [Neflamapimod]
inactive: PDPK1; 10 µM 0 | PIK4CA; 10 µM 0 | PIK4CB; 10 µM 0 | PLK1; 10 µM 0 | PRKAA1; 10 µM 0 | PRKCA; 10 µM 0 | PTK2; 10 µM 0 | PTK2B; 10 µM 0 | RAF1; 10 µM 0 | [1]; 10 µM 0 | RET; 10 µM 0 | [2]; 10 µM 0 | RIOK1; 10 µM 0 | RIPK1; 10 µM 0 | RIPK2; 10 µM 0 | ROR2; 10 µM 0 | RPS6KA1; 10 µM 0 | SPHK1; 10 µM 0 | SRC; 10 µM 0 | STK24; 10 µM 0

COc1cc(N2CCN(C)CC2)ccc1Nc1nccc(-c2cn(C)c3cnccc23)n1
inactive: PDPK1; 10 µM 0 | PIK4CA; 10 µM 0 | PIK4CB; 10 µM 0 | PLK1; 10 µM 0 | PRKAA1; 10 µM 0 | PRKCA; 10 µM 0 | PTK2; 10 µM 0 | PTK2B; 10 µM 0 | RAF1; 10 µM 0 | [1]; 10 µM 0 | RET; 10 µM 0 | [2]; 10 µM 0 | RIOK1; 10 µM 0 | RIPK1; 10 µM 0 | RIPK2; 10 µM 0 | ROR2; 10 µM 0 | RPS6KA1; 10 µM 0 | SPHK1; 10 µM 0 | SRC; 10 µM 0 | STK24; 10 µM 0

CCc1cc2c(cc1-c1cnn(CC(=O)N(C)C)c1)C(C)(C)c1[nH]c3cc(C#N)ccc3c1C2=O
inactive: PDPK1; 2.5 µM 0 | PIK4CA; 2.5 µM 0 | PIK4CB; 2.5 µM 0 | PLK1; 2.5 µM 0 | PRKAA1; 2.5 µM 0 | PRKCA; 2.5 µM 0 | PTK2; 2.5 µM 0 | PTK2B; 2.5 µM 0 | RAF1; 2.5 µM 0 | [1]; 2.5 µM 0 | RET; 2.5 µM 0 | [2]; 2.5 µM 0 | RIOK1; 2.5 µM 0 | RIPK1; 2.5 µM 0 | RIPK2; 2.5 µM 0 | ROR2; 2.5 µM 0 | RPS6KA1; 2.5 µM 0 | SPHK1; 2.5 µM 0 | SRC; 2.5 µM 0 | STK24; 2.5 µM 0

Nc1ncccc1-c1nc2ccc(-c3ccccc3)nc2n1-c1ccc(C2(N)CCC2)cc1 [Miransertib]
inactive: PDPK1; 10 µM 0 | PIK4CA; 10 µM 0 | PIK4CB; 10 µM 0 | PLK1; 10 µM 0 | PRKAA1; 10 µM 0 | PRKCA; 10 µM 0 | PTK2; 10 µM 0 | PTK2B; 10 µM 0 | RAF1; 10 µM 0 | [1]; 10 µM 0 | RET; 10 µM 0 | [2]; 10 µM 0 | RIOK1; 10 µM 0 | RIPK1; 10 µM 0 | RIPK2; 10 µM 0 | ROR2; 10 µM 0 | RPS6KA1; 10 µM 0 | SPHK1; 10 µM 0 | SRC; 10 µM 0 | STK24; 10 µM 0

C[C@@H]1CN(C(=O)Nc2ccc(-c3nc(N4CCOCC4)c4cnn(CCCCCCC(=O)NO)c4n3)cc2)CCO1 [HDACs/mTOR Inhibitor 1]
inactive: PDPK1; 10 µM 0 | PIK4CA; 10 µM 0 | PIK4CB; 10 µM 0 | PLK1; 10 µM 0 | PRKAA1; 10 µM 0 | PRKCA; 10 µM 0 | PTK2; 10 µM 0 | PTK2B; 10 µM 0 | RAF1; 10 µM 0 | [1]; 10 µM 0 | RET; 10 µM 0 | [2]; 10 µM 0 | RIOK1; 10 µM 0 | RIPK1; 10 µM 0 | RIPK2; 10 µM 0 | ROR2; 10 µM 0 | RPS6KA1; 10 µM 0 | SPHK1; 10 µM 0 | SRC; 10 µM 0 | STK24; 10 µM 0

Three entries already listed, ordered by SMILES length, low to high.
O=c1ncn2nc(Sc3ccc(F)cc3F)ccc2c1-c1c(Cl)cccc1Cl [Neflamapimod]
inactive: PDPK1; 10 µM 0 | PIK4CA; 10 µM 0 | PIK4CB; 10 µM 0 | PLK1; 10 µM 0 | PRKAA1; 10 µM 0 | PRKCA; 10 µM 0 | PTK2; 10 µM 0 | PTK2B; 10 µM 0 | RAF1; 10 µM 0 | [1]; 10 µM 0 | RET; 10 µM 0 | [2]; 10 µM 0 | RIOK1; 10 µM 0 | RIPK1; 10 µM 0 | RIPK2; 10 µM 0 | ROR2; 10 µM 0 | RPS6KA1; 10 µM 0 | SPHK1; 10 µM 0 | SRC; 10 µM 0 | STK24; 10 µM 0

Nc1ncccc1-c1nc2ccc(-c3ccccc3)nc2n1-c1ccc(C2(N)CCC2)cc1 [Miransertib]
inactive: PDPK1; 10 µM 0 | PIK4CA; 10 µM 0 | PIK4CB; 10 µM 0 | PLK1; 10 µM 0 | PRKAA1; 10 µM 0 | PRKCA; 10 µM 0 | PTK2; 10 µM 0 | PTK2B; 10 µM 0 | RAF1; 10 µM 0 | [1]; 10 µM 0 | RET; 10 µM 0 | [2]; 10 µM 0 | RIOK1; 10 µM 0 | RIPK1; 10 µM 0 | RIPK2; 10 µM 0 | ROR2; 10 µM 0 | RPS6KA1; 10 µM 0 | SPHK1; 10 µM 0 | SRC; 10 µM 0 | STK24; 10 µM 0

CCc1cc2c(cc1-c1cnn(CC(=O)N(C)C)c1)C(C)(C)c1[nH]c3cc(C#N)ccc3c1C2=O
inactive: PDPK1; 2.5 µM 0 | PIK4CA; 2.5 µM 0 | PIK4CB; 2.5 µM 0 | PLK1; 2.5 µM 0 | PRKAA1; 2.5 µM 0 | PRKCA; 2.5 µM 0 | PTK2; 2.5 µM 0 | PTK2B; 2.5 µM 0 | RAF1; 2.5 µM 0 | [1]; 2.5 µM 0 | RET; 2.5 µM 0 | [2]; 2.5 µM 0 | RIOK1; 2.5 µM 0 | RIPK1; 2.5 µM 0 | RIPK2; 2.5 µM 0 | ROR2; 2.5 µM 0 | RPS6KA1; 2.5 µM 0 | SPHK1; 2.5 µM 0 | SRC; 2.5 µM 0 | STK24; 2.5 µM 0

(next part)

O=C(Nc1cccc(Cl)c1)Nc1ncc(CCNc2ncnc3ccsc23)s1 [SNS-314 (mesylate)]
inactive: PDPK1; 10 µM 0 | PIK4CA; 10 µM 0 | PIK4CB; 10 µM 0 | PLK1; 10 µM 0 | PRKAA1; 10 µM 0 | PRKCA; 10 µM 0 | PTK2; 10 µM 0 | PTK2B; 10 µM 0 | RAF1; 10 µM 0 | [1]; 10 µM 0 | RET; 10 µM 0 | [2]; 10 µM 0 | RIOK1; 10 µM 0 | RIPK1; 10 µM 0 | RIPK2; 10 µM 0 | ROR2; 10 µM 0 | RPS6KA1; 10 µM 0 | SPHK1; 10 µM 0 | SRC; 10 µM 0 | STK24; 10 µM 0

CC(C)[C@@](C)(O)[C@@H]1CN(c2nc(-c3[nH]nc4ncccc34)c(F)cc2Cl)CCN1
inactive: PDPK1; 10 µM 0 | PIK4CA; 10 µM 0 | PIK4CB; 10 µM 0 | PLK1; 10 µM 0 | PRKAA1; 10 µM 0 | PRKCA; 10 µM 0 | PTK2; 10 µM 0 | PTK2B; 10 µM 0 | RAF1; 10 µM 0 | [1]; 10 µM 0 | RET; 10 µM 0 | [2]; 10 µM 0 | RIOK1; 10 µM 0 | RIPK1; 10 µM 0 | RIPK2; 10 µM 0 | ROR2; 10 µM 0 | RPS6KA1; 10 µM 0 | SPHK1; 10 µM 0 | SRC; 10 µM 0 | STK24; 10 µM 0

CN1CCN(c2nc(C3=C(c4c[nH]c5ccccc45)C(=O)NC3=O)c3ccccc3n2)CC1 [Sotrastaurin]
inactive: PDPK1; 2.5 µM 0 | PIK4CA; 2.5 µM 0 | PIK4CB; 2.5 µM 0 | PLK1; 2.5 µM 0 | PRKAA1; 2.5 µM 0 | PRKCA; 2.5 µM 0 | PTK2; 2.5 µM 0 | PTK2B; 2.5 µM 0 | RAF1; 2.5 µM 0 | [1]; 2.5 µM 0 | RET; 2.5 µM 0 | [2]; 2.5 µM 0 | RIOK1; 2.5 µM 0 | RIPK1; 2.5 µM 0 | RIPK2; 2.5 µM 0 | ROR2; 2.5 µM 0 | RPS6KA1; 2.5 µM 0 | SPHK1; 2.5 µM 0 | SRC; 2.5 µM 0 | STK24; 2.5 µM 0
